Test results reported in patent publication US20180169177A1, “POLYPEPTIDE SPECIFICALLY BINDING TO CD34 MOLECULE AND USE THEREOF” (Guangzhou Yidai Pharmaceutical Co., Ltd., priority 2015, published 2018).
No constants are given. Whether binding was seen depends on the method and setting. Some entries that bind do so weakly or less than the wild type.

Chains of the proteins cited; added tags and fusions are not shown. Residues count along the entry.
UniProt P28906, residues 32-290: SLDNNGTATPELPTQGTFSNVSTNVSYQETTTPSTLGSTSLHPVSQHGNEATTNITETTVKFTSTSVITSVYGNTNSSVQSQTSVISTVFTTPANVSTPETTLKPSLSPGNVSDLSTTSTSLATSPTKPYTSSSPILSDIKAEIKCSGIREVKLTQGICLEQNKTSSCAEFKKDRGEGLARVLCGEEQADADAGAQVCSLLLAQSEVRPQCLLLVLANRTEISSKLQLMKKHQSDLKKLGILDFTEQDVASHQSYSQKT

Target: CD34 molecules (purchased from PeproTech) (UniProt P28906)
Assay: phage binding to CD34-coated 96-hole plate, read by spectrophotometer

B1: monoclonal phage 19 (peptide)
peptide: SSLGWWGPRRDFPGRRERIYLGIPWLSLLGSGAPSPV
Q: With B1 as the binder, how does the binding read?
A: Its binding is “binds”.

B2: monoclonal phage 17 (peptide)
peptide: SSFASKKGYPFNRMCAS
Q: B2 was tested. Which binding did it give?
A: Its binding is “binds”.
